# About 170 (0.05%) of roughly 340,000 compounds were called active. The inconclusive results got no clear call from the source; some entries with a clear call stand among them for comparison. Calls follow the shape of the dose curve; as a rule, active = well fitted inhibition curve with a large enough effect in the signal ratio, with a control signal flat (not every such curve was filed as active); inconclusive = small, poorly fitted or top-dose-only effect, or effect the other way, or a change in a side signal; inactive = flat fitted curve, though single readings scatter; the % refers to the signal ratio. Potencies beside an inconclusive call are fits to weak or partial responses and may not hold up.
# Assay: qHTS Assay to Find Inhibitors of Chronic Active B-Cell Receptor Signaling;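 as to activity change, negative = inhibition: plate controls were basal doxycycline-induced cells for no effect and cells given 10 µM MG132 for full effect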
# Conditions: ABC-DLBCL IkBa-CBG/CBR reporter, luminescence ratio (green luciferase fused to IkBa over red control in TMD8 lymphoma cells), 4 h; activity change, negative = inhibition: at 46.1 µM (top of the series)
# Method in brief: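 Cell line TMD8 (human ABC DLBCL), stably expressing tet-inducible CBG68-IkBa fusion and CBR; IMDM/0.5% FBS; cpd up to 46 uM; dox induction, 4 h, 37C/5% CO2; dual luminescence; green/red ratio; MG132 control.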
# Potency is read from the fitted curve at half-maximal effect.
Compound,Potency,"activity change, negative = inhibition"
Clc1ncccc1-c1nnn(-c2ccccc2)n1,"inconclusive: 22.4 µM [falling, single point]",
O=C(c1ccc2c(c1)OCO2)C1CCCN(Cc2cn[nH]c2-c2ccccc2)C1 (stereo unspecified),"inconclusive: 17.8 µM [falling, partial curve]",
CN(C)Cc1c(C(=O)N/N=C/c2ccncc2)nnn1-c1nonc1N,"inconclusive: 22.4 µM [falling, partial curve]",
CCc1nc(SCc2ccc(F)cc2)[nH]c(=O)c1C#N,,inconclusive: 16.8%
CCOCC(=O)Nc1cc(Cl)ccc1C,,inconclusive: 5.06%
Cc1cc(C(=O)COC(=O)c2ccc(O)cc2O)c(C)n1-c1ccc(OC(F)F)cc1,,inconclusive: -6.02%
CCOC(=O)c1sc(SCC(=O)Nc2ccc(N(C)C)cc2)nc1N,"inconclusive: 22.4 µM [falling, single point]",
CNCCCOc1cccc(Oc2ccccc2)c1,"inconclusive: 35.5 µM [falling, single point]",
O=C(c1cc(-c2ccco2)nc2ccccc12)N1CCN(Cc2ccccc2)CC1,,inactive
Cc1cc2c3c(c1C)C1(C(=O)N3C(C)(C)CC2C)C(C#N)=C(N)Oc2cc(O)ccc21 (stereo unspecified),,inactive
C=CCn1c(SCc2ccccc2)nc2scc(-c3ccc(C)o3)c2c1=O,,inactive
NS(=O)(=O)c1ccc(NC(=S)NCc2ccc(F)cc2)cc1,,inactive
CCN(c1ccc(OC)cc1)S(=O)(=O)c1nnc(NC(=O)CC(C)C)s1,,inconclusive: -1.62%
N#Cc1ccccc1CSc1ccc(-c2nc3ccccc3[nH]2)cn1,,inconclusive: -23.7% [cytotoxic]
COc1ccc(C(=O)N2CCOC2CNC(=O)C(=O)NCCc2ccccc2OC)cc1 (stereo unspecified),,inconclusive: 4.21%
COCc1c(C(=O)NC2CCCCC2)sc2cccc(F)c12,,inconclusive: 8.27%
Cc1ccc(N/C=C2/Sc3ccccc3NC2=O)cc1,"inconclusive: 2 µM [falling, full curve, poor fit]",
O=C(CCN1CCN(c2ccccc2)CC1)Nc1ccc(OCc2ccccc2)cc1,"inconclusive: 10.3 µM [rising, partial curve, poor fit]",
C=C(C)c1cccc(C(C)(C)NC(=O)Nc2ccc(Cl)cn2)c1,,inconclusive: 16.4%
CCOC(=O)Cc1c(C)nc2c(-c3ccc(Cl)cc3)cnn2c1C,"inconclusive: 35.5 µM [falling, single point]",
Cc1cc(NC(=O)CSc2nnc(COc3cccc(C)c3C)n2Cc2ccco2)no1,,inconclusive: -2.9%

Compound,Potency,"activity change, negative = inhibition"
NNC(=O)c1ccc(COc2ccc3ccccc3c2)cc1,"inconclusive: 25.1 µM [falling, partial curve]",
Nc1nc(SCC(=O)Nc2ccc(OCc3ccccc3)cc2)n[nH]1,,inconclusive: 10.2%
CCCCC(=O)Nc1nnc(-c2ccco2)o1,"inconclusive: 35.5 µM [cytotoxic, single point]",
O=C(N/N=C/c1cccc(Oc2ccccc2)c1)c1cccc(O)c1,,inconclusive: -10.2%
COc1ccc(/C=C2\SC(N3CCCCC3)=NC2=O)cc1OC,,inconclusive: -1.47%
COc1ccc(OC)c(NC(=O)c2cc3sccc3n2C)c1,,inconclusive: -1.87%
N/C(Cc1ccc(Cl)cc1)=N\OC(=O)c1cccc2ccccc12,,inconclusive: 11.6%
CCOc1ccc(-c2ccc(SCC(=O)Nc3nnc(C)s3)nn2)cc1,"inconclusive: 0.562 µM [falling, full curve]",
CCOc1ccc(C(=O)CC(Sc2ccc(C)cc2)C(=O)O)cc1 (stereo unspecified),,inconclusive: 9.77%
O=C(NCc1ccco1)c1ccc([N+](=O)[O-])o1,,inactive
CC(=O)c1ccc(OC(C)c2nc3ccccc3s2)cc1 (stereo unspecified),,inconclusive: 0.109%
Cn1c(=O)c2c(nc(NCc3ccco3)n2CC(O)COc2ccccc2)n(C)c1=O (stereo unspecified),,inactive
CCCC1(c2ccccc2)NC(=O)N(CC(=O)NCc2ccc(OC)cc2)C1=O (stereo unspecified),,inactive
COc1ccc(-n2c(C)cc(/C=C3/SC(=O)N(CC(=O)N4CCOCC4)C3=O)c2C)cc1,,inconclusive: 7.09%
COc1cc2c(cc1OC)C(c1ccc(Br)cc1)CC(=O)N2 (stereo unspecified),"inconclusive: 20 µM [falling, single point]",
O=C1CN(C(=O)c2ccc3nc(Cc4cccc(Cl)c4)oc3c2)CCN1,,inactive
COC(=O)c1sccc1NC(=O)Nc1ccc(OC)cc1OC,,inconclusive: -10.2%
CNc1nc(NCc2ccccc2)c2ccccc2n1,,inactive
COc1cc(/C=C/C(=O)c2ccc3c(c2)OCCO3)cc(Br)c1OCC(=O)N(C)C,"inconclusive: 7.94 µM [falling, partial curve]",
O=C(NCc1ccco1)c1ccc(S(=O)(=O)c2cccc(S(=O)(=O)N3CCOCC3)c2)cc1,,inconclusive: 5.98%
COc1ccccc1C(=O)Nc1ccc(-c2nc3ccccc3s2)c(C)c1,"inconclusive: 11.2 µM [falling, partial curve, poor fit]",

# Two successive records from above, for reference:
Compound,Potency,"activity change, negative = inhibition"
CCOc1ccc(-c2ccc(SCC(=O)Nc3nnc(C)s3)nn2)cc1,"inconclusive: 0.562 µM [falling, full curve]",
CCOc1ccc(C(=O)CC(Sc2ccc(C)cc2)C(=O)O)cc1 (stereo unspecified),,inconclusive: 9.77%

# Next compounds.

Compound,Potency,"activity change, negative = inhibition"
CCc1n[nH]c(=S)n1/N=C/c1ccccc1OCc1ccc(Cl)cc1,,inactive
Cc1cc2ccccc2c(=O)n1CC(=O)NCc1ccco1,"inconclusive: 29.1 µM [falling, single point]",
Cc1ccc(C(=O)COc2ccccc2-c2ccccc2)cc1C,,inconclusive: 2.48%
COc1cc2c(cc1OC)C(c1ccc(O)cc1)NCC2 (stereo unspecified),,inactive
O=C1Cc2ccccc2C(=O)N1CCc1ccccc1,,inconclusive: -19.1%
O=C(Nc1cccc(NC(=O)c2ccco2)c1)c1ccccc1,,inactive
CC(=O)NC(CC(=O)N(C)Cc1cccc(Cl)c1Cl)c1ccccc1 (stereo unspecified),"inconclusive: 3.98 µM [falling, single point]",
O=C(O)c1cncc(C#Cc2ccccc2)c1,,inconclusive: 3.74%
Cn1cc(CN2CCc3ccccc3C2)c2ccccc21,,inconclusive: -9.04%
Cc1cccc(/C=C2\Sc3ccc(C(=O)N4CCC(C)CC4)cc3N(C)C2=O)c1,,inconclusive: 7.27%
O=C1N(Cc2ccc(F)cc2Cl)c2ccccc2C12OCCCO2,,inconclusive: 5.34%
O=C(CCC(=O)N1CCOc2ccc(Cl)cc21)NCCCN1CCC(Cc2ccccc2)CC1,"inconclusive: 0.316 µM [falling, full curve, poor fit]",
O=C(c1ccncc1)N1CCCC(N2CCN(c3ccc(F)cc3)CC2)C1 (stereo unspecified),"inconclusive: 35.5 µM [falling, single point]",
CCC(=O)Nc1ccc(C(=O)N2CCN(C(=O)c3ccco3)CC2)cc1,"inconclusive: 5.62 µM [falling, single point]",
O=C(NCCN1CCOCC1)c1ccc(NS(=O)(=O)c2ccccc2)cc1,,inactive
COc1ccccc1NC(=O)C1=C(C)NC(SCC(=O)c2ccc(C)cc2)=C(C#N)C1c1ccco1 (stereo unspecified),"inconclusive: 7.31 µM [rising, partial curve]",
Cc1c(NC(=O)c2cc3nc(-c4ccc(Cl)cc4)cc(C(F)(F)F)n3n2)c(=O)n(-c2ccccc2)n1C,"inconclusive: 0.103 µM [rising, full curve, poor fit]",
CCc1nnc(NC(=O)CS(=O)(=O)c2ccccc2)s1,,inconclusive: -17.5%
Cc1cccc(/C=N/NC(=O)c2cc(C)nc3ccccc23)n1,,inconclusive: -13.3%
CC(=O)CCc1c[nH]c2c(C(=O)O)cccc12,"inconclusive: 1.16 µM [rising, full curve, poor fit]",
FC(F)(F)c1ccc(Oc2ccc3ccccc3c2Br)nc1,,inconclusive: 21.4%

Compound,Potency,"activity change, negative = inhibition"
CCOC(=O)c1ccccc1NC(=O)CSc1nnnn1C,"inconclusive: 32.6 µM [falling, single point]",
Cc1ccccc1OCC(=O)NNC(=O)CCN1C(=O)c2ccccc2C1=O,,inconclusive: 2.41%
COc1ccc(CNc2cc(C)nc3ncnn23)c(OC)c1,,inconclusive: 11.8%
COc1ccccc1C(=O)Nc1nnc(S(=O)(=O)N2CCCCCC2)s1,,inconclusive: 7.2%
Nc1ccccc1C#Cc1ccccc1,,inactive
CCn1c(SCC(=O)N/N=C/c2c[nH]c3ccccc23)nnc1-c1ccc(C(C)(C)C)cc1,,inconclusive: -19.4%
Cc1ccc(N2C(=O)N(Cc3ccccc3C)c3ccccc3S2(=O)=O)cc1,"inconclusive: 0.116 µM [falling, partial curve, poor fit]",
Cc1nc(SCC(=O)c2ccccc2)c(C#N)c(-c2ccco2)c1C(=O)NCc1ccco1,"inconclusive: 22.4 µM [falling, partial curve, poor fit]",
Cc1ccc(OCC(O)CNC(=O)c2ccccc2C(=O)O)cc1 (stereo unspecified),,inconclusive: -0.153%
COC(=O)[C@H](Cc1ccccc1)NC(=O)Cn1cnc2c(NCc3ccccc3)ncnc21,,inactive
Nc1c(C(=O)N2CCCCCC2)oc2ccccc12,,inconclusive: 3.04%
Cc1ccc(-c2csnn2)cc1,,inconclusive: 3.96%
CC(C)CC(=O)NC(=S)Nc1ccc(Cl)cn1,"inconclusive: 29.1 µM [falling, partial curve, poor fit]",
Cc1ccccc1-c1cc(=O)c2ccccc2o1,,inactive
Cc1cc(C)nc(NC(=NCCc2c[nH]c3ccccc23)NC(=O)c2ccco2)n1,,inactive
CCC(COC)Oc1cc(NCc2ccccc2)c2ncn(C(C)C)c2c1 (stereo unspecified),,inconclusive: 23.7%
Cc1ccccc1S(=O)(=O)N1[C@@H](c2ccc(Cl)cc2)C(C(=O)O)=CC[C@H]1c1ccc(Cl)cc1,,inconclusive: 3.05%
Cc1cccc(-c2nnc(SCC(=O)NC3CC3)n2C)c1,,inconclusive: 7.73%

# Retrieved by structure from the list above:
Compound,Potency,"activity change, negative = inhibition"
CCOC(=O)c1ccccc1NC(=O)CSc1nnnn1C,"inconclusive: 32.6 µM [falling, single point]",
COc1ccccc1C(=O)Nc1nnc(S(=O)(=O)N2CCCCCC2)s1,,inconclusive: 7.2%
Cc1ccc(N2C(=O)N(Cc3ccccc3C)c3ccccc3S2(=O)=O)cc1,"inconclusive: 0.116 µM [falling, partial curve, poor fit]",

# From PubChem BioAssay AID493014 (National Center for Advancing Translational Sciences (NCATS), 2011)
